Among the data in PMC12440877 are binding values, retold here.

Results are given in words; binding and its absence hold for the method and conditions named. Binding seen in cells or lysates may run through a third protein. These calls come from enrichment with a bait or labelling near it, and not all partners need be listed.

This assay deals with T1, Interferon-induced transmembrane protein 1 (IFITM1) (mouse (endogenous in NIH-3T3)) (UniProt Q9D103).
T1 sequence: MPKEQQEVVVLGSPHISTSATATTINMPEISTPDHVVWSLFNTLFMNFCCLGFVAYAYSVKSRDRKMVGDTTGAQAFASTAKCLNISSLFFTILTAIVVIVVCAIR
Put plainly: affinity purification with mass spectrometry; NIH-3T3 lysate; anti-IFITM1 antibody or IgG on magnetic beads; eluate run on SDS-PAGE, then mass spectrometry; IgG group against IFITM1 group.

B1: CBR4 (protein, UniProt Q91VT4 1-236)
chain: MDKVCAVFGGSRGIGRAVAQLMAQKGYRLAIVSRNLEVAKVTAGELGGNHLAFRCDVAKEQDVQSTFQEMEKHLGPVNFLVNAAGINRDSLLVRTKTEDMISQLHTNLLGSMLTCKAAMKTMIQQGGSIVNVGSIIGLKGNVGQSAYSATKGGLVGFSRSLAKEVARKKIRVNVVAPGFIRTDMTRHLKEEHFKKNIPLGRFGETLEVAHAVVFLLESPYITGHVLIVDGGLQLTV
Turning to B1, the binding result was “binds”.
